Source: PMC10761734

By UniProt entry, the sequences of proteins in these tests, tags left out.
UniProt Q86T03: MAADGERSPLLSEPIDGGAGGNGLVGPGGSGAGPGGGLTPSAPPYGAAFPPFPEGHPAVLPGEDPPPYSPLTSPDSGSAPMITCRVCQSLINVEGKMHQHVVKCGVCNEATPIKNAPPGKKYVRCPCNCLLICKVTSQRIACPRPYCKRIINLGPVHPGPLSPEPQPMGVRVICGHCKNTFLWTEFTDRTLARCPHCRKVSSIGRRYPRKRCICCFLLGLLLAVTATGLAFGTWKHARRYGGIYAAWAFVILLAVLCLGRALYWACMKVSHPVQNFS
UniProt Q8WUM4: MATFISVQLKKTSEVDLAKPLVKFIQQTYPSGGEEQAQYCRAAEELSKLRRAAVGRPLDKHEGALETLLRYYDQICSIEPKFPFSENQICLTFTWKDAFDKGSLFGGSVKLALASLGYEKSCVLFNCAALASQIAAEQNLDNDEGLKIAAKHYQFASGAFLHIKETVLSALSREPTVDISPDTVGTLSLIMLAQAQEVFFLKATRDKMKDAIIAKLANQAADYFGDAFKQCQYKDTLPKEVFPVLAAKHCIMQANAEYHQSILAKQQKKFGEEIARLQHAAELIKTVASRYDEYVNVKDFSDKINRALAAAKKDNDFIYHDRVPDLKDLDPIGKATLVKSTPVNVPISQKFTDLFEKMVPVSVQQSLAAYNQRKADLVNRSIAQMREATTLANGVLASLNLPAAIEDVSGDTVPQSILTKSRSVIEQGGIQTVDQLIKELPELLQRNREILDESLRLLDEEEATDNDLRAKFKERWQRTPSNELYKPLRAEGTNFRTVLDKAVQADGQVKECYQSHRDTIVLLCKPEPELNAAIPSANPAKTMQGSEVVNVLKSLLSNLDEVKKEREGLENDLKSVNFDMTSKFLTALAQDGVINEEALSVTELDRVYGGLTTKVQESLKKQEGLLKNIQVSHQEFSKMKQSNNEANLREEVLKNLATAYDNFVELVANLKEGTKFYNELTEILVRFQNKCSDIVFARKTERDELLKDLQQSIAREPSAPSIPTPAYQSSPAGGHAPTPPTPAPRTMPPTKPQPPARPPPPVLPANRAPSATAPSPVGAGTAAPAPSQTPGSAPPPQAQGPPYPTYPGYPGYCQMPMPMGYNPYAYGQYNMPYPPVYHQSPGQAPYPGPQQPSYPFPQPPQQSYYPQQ
UniProt Q9NZZ3: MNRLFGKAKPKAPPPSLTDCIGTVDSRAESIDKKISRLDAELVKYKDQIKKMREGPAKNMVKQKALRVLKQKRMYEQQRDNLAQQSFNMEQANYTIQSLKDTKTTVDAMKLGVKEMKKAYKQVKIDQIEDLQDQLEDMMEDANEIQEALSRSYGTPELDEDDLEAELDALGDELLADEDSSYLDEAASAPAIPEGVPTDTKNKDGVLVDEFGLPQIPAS
UniProt O14964: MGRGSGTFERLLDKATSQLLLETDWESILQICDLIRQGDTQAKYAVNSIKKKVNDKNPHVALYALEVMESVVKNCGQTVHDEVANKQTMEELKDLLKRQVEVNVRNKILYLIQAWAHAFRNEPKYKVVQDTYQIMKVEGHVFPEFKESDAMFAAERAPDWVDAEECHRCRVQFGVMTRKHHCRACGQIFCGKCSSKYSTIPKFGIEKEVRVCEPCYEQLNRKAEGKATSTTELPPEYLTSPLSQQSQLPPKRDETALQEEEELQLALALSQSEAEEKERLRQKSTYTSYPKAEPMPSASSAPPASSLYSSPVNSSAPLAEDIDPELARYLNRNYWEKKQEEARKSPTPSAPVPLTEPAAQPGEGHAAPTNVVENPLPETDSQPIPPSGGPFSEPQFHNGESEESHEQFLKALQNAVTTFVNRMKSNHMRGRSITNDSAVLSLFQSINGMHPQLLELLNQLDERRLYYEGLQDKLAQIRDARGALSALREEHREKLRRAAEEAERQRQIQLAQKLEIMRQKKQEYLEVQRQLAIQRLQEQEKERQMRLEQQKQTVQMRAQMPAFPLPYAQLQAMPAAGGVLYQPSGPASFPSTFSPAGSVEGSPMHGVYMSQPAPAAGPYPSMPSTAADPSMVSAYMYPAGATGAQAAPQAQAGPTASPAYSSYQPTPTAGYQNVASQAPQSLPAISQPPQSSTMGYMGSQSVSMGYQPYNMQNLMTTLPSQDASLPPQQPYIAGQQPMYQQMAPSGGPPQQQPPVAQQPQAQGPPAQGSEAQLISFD
UniProt P46934: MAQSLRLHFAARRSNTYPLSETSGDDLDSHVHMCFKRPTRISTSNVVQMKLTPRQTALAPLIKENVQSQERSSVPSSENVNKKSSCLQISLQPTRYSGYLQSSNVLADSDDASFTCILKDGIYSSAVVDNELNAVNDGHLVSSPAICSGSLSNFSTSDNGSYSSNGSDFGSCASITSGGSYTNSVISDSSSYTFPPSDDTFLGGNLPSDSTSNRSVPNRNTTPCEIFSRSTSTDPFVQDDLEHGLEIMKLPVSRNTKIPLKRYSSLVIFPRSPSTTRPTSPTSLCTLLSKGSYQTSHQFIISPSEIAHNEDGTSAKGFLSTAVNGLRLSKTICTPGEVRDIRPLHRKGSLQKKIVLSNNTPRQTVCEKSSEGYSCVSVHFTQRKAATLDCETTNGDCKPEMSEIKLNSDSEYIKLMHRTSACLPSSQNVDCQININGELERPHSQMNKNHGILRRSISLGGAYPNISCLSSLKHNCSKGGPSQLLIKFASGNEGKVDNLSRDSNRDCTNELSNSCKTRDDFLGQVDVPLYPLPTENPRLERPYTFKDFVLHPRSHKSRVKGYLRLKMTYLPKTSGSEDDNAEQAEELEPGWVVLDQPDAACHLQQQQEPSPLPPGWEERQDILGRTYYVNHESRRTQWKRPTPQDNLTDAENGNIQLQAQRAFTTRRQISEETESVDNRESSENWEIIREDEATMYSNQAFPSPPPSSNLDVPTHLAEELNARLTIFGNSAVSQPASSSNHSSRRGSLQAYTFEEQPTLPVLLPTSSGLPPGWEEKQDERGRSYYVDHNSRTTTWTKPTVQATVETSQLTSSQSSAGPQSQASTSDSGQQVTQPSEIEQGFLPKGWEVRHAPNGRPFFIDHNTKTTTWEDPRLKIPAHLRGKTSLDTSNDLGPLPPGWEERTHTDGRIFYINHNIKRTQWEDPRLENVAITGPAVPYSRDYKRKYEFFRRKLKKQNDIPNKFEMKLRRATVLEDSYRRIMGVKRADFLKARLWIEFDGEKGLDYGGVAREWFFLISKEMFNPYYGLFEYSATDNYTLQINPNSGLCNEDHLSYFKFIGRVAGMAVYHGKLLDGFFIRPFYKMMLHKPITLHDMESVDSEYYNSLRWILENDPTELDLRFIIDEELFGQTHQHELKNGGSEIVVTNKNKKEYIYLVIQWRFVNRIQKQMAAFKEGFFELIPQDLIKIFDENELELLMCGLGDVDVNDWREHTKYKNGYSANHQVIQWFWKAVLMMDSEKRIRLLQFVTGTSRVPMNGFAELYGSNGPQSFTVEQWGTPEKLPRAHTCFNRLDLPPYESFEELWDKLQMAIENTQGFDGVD
UniProt Q9Y4G2: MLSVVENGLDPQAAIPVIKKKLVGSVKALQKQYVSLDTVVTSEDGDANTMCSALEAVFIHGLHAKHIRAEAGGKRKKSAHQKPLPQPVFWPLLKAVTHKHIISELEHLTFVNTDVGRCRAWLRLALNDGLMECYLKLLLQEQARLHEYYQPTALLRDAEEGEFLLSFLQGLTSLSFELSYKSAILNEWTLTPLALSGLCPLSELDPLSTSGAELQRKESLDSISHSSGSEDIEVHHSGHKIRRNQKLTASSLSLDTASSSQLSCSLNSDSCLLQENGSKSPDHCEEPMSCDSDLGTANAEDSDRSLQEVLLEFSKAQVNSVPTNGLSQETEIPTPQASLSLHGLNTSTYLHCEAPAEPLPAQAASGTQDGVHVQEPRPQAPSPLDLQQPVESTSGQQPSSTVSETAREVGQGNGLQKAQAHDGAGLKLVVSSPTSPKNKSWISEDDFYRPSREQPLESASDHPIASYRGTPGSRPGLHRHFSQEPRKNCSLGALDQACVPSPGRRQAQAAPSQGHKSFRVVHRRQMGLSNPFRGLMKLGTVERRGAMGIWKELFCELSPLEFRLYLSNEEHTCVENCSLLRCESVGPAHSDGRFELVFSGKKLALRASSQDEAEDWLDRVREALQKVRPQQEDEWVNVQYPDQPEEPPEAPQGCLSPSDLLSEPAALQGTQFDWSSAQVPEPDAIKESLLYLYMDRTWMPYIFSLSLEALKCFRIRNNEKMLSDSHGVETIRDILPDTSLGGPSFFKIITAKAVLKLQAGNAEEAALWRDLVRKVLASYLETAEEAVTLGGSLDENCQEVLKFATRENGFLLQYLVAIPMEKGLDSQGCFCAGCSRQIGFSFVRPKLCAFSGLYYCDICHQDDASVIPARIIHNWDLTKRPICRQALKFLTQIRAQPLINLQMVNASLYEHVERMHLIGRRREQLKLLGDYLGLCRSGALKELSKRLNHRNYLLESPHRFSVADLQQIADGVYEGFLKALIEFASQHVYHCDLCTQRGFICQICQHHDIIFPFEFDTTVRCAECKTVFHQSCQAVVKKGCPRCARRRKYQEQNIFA
UniProt Q9HCE7: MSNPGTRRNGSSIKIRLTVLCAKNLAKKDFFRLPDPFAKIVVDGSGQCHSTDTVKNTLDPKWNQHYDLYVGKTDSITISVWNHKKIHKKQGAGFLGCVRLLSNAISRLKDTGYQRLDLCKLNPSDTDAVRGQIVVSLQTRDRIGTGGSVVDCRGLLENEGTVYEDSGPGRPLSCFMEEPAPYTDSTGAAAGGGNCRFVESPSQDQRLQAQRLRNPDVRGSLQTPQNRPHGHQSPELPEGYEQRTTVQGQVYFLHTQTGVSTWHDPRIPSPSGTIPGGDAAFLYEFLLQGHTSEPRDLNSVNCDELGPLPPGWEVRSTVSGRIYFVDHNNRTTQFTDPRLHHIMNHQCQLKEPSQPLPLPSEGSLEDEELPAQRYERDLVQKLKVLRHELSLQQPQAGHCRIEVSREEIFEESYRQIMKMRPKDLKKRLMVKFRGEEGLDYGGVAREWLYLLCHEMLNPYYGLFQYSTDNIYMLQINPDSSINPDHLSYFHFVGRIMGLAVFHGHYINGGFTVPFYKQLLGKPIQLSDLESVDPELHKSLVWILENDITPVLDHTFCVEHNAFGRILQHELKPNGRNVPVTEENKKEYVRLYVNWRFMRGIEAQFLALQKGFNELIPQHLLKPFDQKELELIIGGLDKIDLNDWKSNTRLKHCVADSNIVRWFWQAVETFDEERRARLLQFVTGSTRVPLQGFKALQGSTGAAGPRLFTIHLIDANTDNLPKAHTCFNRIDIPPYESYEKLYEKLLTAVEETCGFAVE
UniProt Q9HAU4: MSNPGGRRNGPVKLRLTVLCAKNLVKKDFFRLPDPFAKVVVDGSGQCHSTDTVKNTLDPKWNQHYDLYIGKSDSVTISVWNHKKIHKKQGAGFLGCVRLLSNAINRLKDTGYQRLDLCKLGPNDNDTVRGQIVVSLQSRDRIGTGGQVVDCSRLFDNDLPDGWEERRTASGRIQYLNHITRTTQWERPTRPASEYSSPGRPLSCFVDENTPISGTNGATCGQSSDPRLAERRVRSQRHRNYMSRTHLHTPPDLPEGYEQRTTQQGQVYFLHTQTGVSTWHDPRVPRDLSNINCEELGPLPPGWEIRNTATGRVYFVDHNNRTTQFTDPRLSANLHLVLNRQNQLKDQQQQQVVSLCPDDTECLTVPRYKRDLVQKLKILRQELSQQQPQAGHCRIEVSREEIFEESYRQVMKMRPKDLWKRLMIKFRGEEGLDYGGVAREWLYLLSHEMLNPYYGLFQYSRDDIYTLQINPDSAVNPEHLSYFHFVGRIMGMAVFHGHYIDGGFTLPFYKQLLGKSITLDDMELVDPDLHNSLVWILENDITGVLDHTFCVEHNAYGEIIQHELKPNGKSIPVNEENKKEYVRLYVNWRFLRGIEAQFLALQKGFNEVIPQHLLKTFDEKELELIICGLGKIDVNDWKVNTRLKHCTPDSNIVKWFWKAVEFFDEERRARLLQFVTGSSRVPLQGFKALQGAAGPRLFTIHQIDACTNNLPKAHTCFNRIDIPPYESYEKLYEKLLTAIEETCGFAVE

target: TMEM55B-GFP-WT full length (FL) (human) (UniProt Q86T03); assay: affinity purification with mass spectrometry; U2OS cells infected with adenovirus expressing TMEM55B-WT-GFP or TMEM55B-P66A-GFP, with or without 300 uM NaAsO2 for 2 h; lysates immunoprecipitated with GFP beads, SDS-PAGE, gel bands digested, Orbitrap Fusion Lumos

binding, binds:
ALIX (from UniProt Q8WUM4 1-868)
CHMP5 (from UniProt Q9NZZ3 1-219)
HRS (from UniProt O14964 1-777)
NEDD4 (from UniProt P46934 1-1319) (enzyme)
PLEKHM1 (Pleckstrin homology domain family M member 1), endogenous (from UniProt Q9Y4G2 1-1056)
SMURF1 (from UniProt Q9HCE7 1-757) (enzyme)
SMURF2 (from UniProt Q9HAU4 1-748) (enzyme)

No constants are given. Whether binding was seen depends on the method and setting. Binding seen in cells or lysates may run through a third protein. A yes stands for co-enrichment or nearness to the bait. Other partners may have been found.
